Values from PubChem BioAssay AID493246 (Drosophila RNAi Screening Center, 2011)

Test: 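Genes fly cells need to grow and stay alive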 (primary screen)
System: Drosophila Kc and S2R+ cells
Reagents: long dsRNA against Drosophila genes
Detection: 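Cell number per well after knock-down, printed as raw plate values; calls were based on per-plate z-scores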
Reading the numbers: Kc cell number and S2R+ cell number: higher = more cells remaining
Rule for the call: 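Counted as a hit if cell number falls by a z-score of at least 3 within its plate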
The screen tested about 21,000 reagents; shown is an unselected part of those that have a named target and a result. Over the whole deposit, 429 (2%) got an active call. 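Values are raw and not normalised between plates; calls rest on per-plate z-scores that were not deposited.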 Names joined by + are all predicted targets of the reagent. No sequences are given here. Not given: the amount of reagent, the time to read-out.

| gene | DRSC id | Kc cell number, rep 1 | Kc cell number, rep 2 | S2R+ cell number, rep 1 | S2R+ cell number, rep 2 | outcome |
| --- | --- | --- | --- | --- | --- | --- |
| UGP + PGRP-LF | DRSC10418 | 1.60e6 | 1.64e6 | 1.28e6 | 1.42e6 | inactive |
| CG6184 | DRSC15986 | 1.33e6 | 1.32e6 | 1.03e6 | 1.19e6 | inactive |
| Tina-1 | DRSC04317 | 1.35e6 | 1.39e6 | 1.16e6 | 1.13e6 | inactive |
| Paics | DRSC20305 | 5.73e5 | – | 8.42e5 | – | inactive |
| CG8195 | DRSC07103 | 1.33e6 | 1.42e6 | 1.19e6 | 1.15e6 | inactive |
| CG13202 | DRSC06326 | 1.61e6 | 1.65e6 | 1.20e6 | 1.37e6 | inactive |
| Ras85D | DRSC16814 | 1.42e6 | 1.32e6 | 1.06e6 | 1.18e6 | inactive |
| Rpn9 | DRSC16840 | 1.31e6 | 1.42e6 | 1.10e6 | 1.22e6 | inactive |
| CG30385 | DRSC06031 | 1.66e6 | 1.69e6 | 1.33e6 | 1.54e6 | inactive |
| Dgat2 | DRSC06803 | 1.46e6 | 1.53e6 | 9.76e5 | 1.02e6 | inactive |
| dlp | DRSC10281 | 1.05e6 | 1.21e6 | 8.05e5 | 8.75e5 | inactive |
| dlp | DRSC10472 | 1.32e6 | 1.38e6 | 1.13e6 | 1.17e6 | inactive |
| CG43127 | DRSC09039 | 1.35e6 | 1.39e6 | 1.07e6 | 1.26e6 | inactive |
| Tango11 | DRSC03890 | 4.91e5 | – | 7.24e5 | – | inactive |
| Tango11 | DRSC03892 | 4.44e5 | – | 7.43e5 | – | inactive |
| ppk30 | DRSC15302 | 1.43e6 | 1.44e6 | 9.88e5 | 1.10e6 | inactive |
| PH4alphaMP | DRSC17031 | 1.41e6 | 1.43e6 | 9.69e5 | 1.04e6 | inactive |
| CG31268 | DRSC13203 | 1.66e6 | 1.88e6 | 1.14e6 | 1.34e6 | inactive |
| Mulk | DRSC02658 | 1.24e6 | 1.29e6 | 1.29e6 | 1.28e6 | inactive |
| mkg-p + Tpt | DRSC10777 | 1.26e6 | 1.46e6 | 1.21e6 | 1.08e6 | inactive |
| sun | DRSC20140 | 1.48e6 | 1.46e6 | 9.61e5 | 1.12e6 | inactive |
| rept | DRSC11388 | 1.50e6 | 1.55e6 | 1.21e6 | 1.36e6 | inactive |
| Polr2L | DRSC14630 | 1.80e6 | 1.83e6 | 1.03e6 | 1.09e6 | inactive |
| CG3631 | DRSC15503 | 1.78e6 | 1.98e6 | 1.49e6 | 1.54e6 | inactive |
| Adss | DRSC14162 | 1.36e6 | 1.43e6 | 9.44e5 | 9.82e5 | inactive |
| Ilp1 | DRSC10174 | 1.38e6 | 1.53e6 | 1.21e6 | 1.27e6 | inactive |
| bys | DRSC18748 | 5.77e5 | – | 9.28e5 | – | inactive |
| Cngl | DRSC20318 | 1.52e6 | 1.45e6 | 9.78e5 | 1.06e6 | inactive |
| CG31556 (retired record) | DRSC12122 | 1.40e6 | 1.42e6 | 1.02e6 | 1.15e6 | inactive |
| CG3376 | DRSC04362 | 1.62e6 | 1.74e6 | 1.16e6 | 1.10e6 | inactive |
| CG10809 | DRSC09802 | 1.59e6 | 1.51e6 | 1.45e6 | 1.50e6 | inactive |
| Myd88 | DRSC06815 | 1.31e6 | 1.44e6 | 1.03e6 | 1.12e6 | inactive |
| ppk27 | DRSC08168 | 1.39e6 | 1.27e6 | 1.06e6 | 1.34e6 | inactive |
| Dscam1 | DRSC05047 | 1.43e6 | 1.49e6 | 9.52e5 | 1.05e6 | inactive |
| Dscam1 | DRSC05048 | 1.43e6 | 1.49e6 | 1.02e6 | 1.06e6 | inactive |
| Dscam1 | DRSC07407 | 1.49e6 | 1.58e6 | 1.24e6 | 1.31e6 | inactive |
| CG10405 | DRSC14238 | 1.52e6 | 1.56e6 | 1.06e6 | 1.14e6 | inactive |
| shep | DRSC08748 | 1.33e6 | 1.34e6 | 6.37e5 | 7.73e5 | active |
| shep | DRSC09765 | 1.47e6 | 1.52e6 | 1.16e6 | 1.21e6 | inactive |
| shep | DRSC09771 | 1.51e6 | 1.45e6 | 1.35e6 | 1.33e6 | inactive |
| Nipped-B | DRSC07815 | 1.41e6 | 1.29e6 | 8.93e5 | 1.02e6 | inactive |
| Ets65A | DRSC09968 | 1.45e6 | 1.33e6 | 1.07e6 | 1.21e6 | inactive |
| Ets65A | DRSC10738 | 1.30e6 | 1.40e6 | 1.32e6 | 1.05e6 | inactive |
| Ets65A | DRSC11164 | 1.58e6 | 1.53e6 | 1.45e6 | 1.20e6 | inactive |
| CG17267 | DRSC15207 | 1.16e6 | 1.24e6 | 1.01e6 | 1.11e6 | inactive |
| CG15861 | DRSC04274 | 1.55e6 | 1.44e6 | 1.22e6 | 1.29e6 | inactive |
| CG13654 | DRSC14654 | 1.43e6 | 1.43e6 | 9.77e5 | 1.07e6 | inactive |
| CG12768 | DRSC11680 | 1.47e6 | 1.77e6 | 1.09e6 | 1.24e6 | inactive |
| CG17683 | DRSC21160 | 1.48e6 | 1.44e6 | 1.03e6 | 1.13e6 | inactive |
| CG14324 | DRSC14803 | 1.43e6 | 1.45e6 | 1.00e6 | 9.98e5 | inactive |
| Tcs5 | DRSC09774 | 1.48e6 | 1.34e6 | 1.20e6 | 1.23e6 | inactive |
| CG5541 | DRSC19946 | 6.13e5 | – | 8.43e5 | – | inactive |
| CG12126 | DRSC06103 | 1.88e6 | 1.93e6 | 1.43e6 | 1.62e6 | inactive |
| botv | DRSC05949 | 1.33e6 | 1.40e6 | 9.34e5 | 9.89e5 | inactive |
| dbo | DRSC11339 | 1.33e6 | 1.43e6 | 1.27e6 | 1.29e6 | inactive |
| CG15820 | DRSC08480 | 1.28e6 | 1.43e6 | 1.17e6 | 1.18e6 | inactive |
| CG32809 | DRSC18507 | 1.70e6 | 1.72e6 | 1.11e6 | 1.18e6 | inactive |
| CG32809 | DRSC18562 | 1.51e6 | 1.49e6 | 1.05e6 | 1.19e6 | inactive |
| CG32809 | DRSC18592 | 4.71e5 | – | 7.44e5 | – | inactive |
